Laboratory results from paper PMC10928201.
These are yes or no findings as the source states them, for the method shown. Binding seen in cells or lysates may run through a third protein. These calls come from enrichment with a bait or labelling near it, and not all partners need be listed. One block for each molecule: values may come before it.

By UniProt entry, the sequences of proteins in these tests, tags left out. Residues count along the entry.
UniProt Q7L5D6: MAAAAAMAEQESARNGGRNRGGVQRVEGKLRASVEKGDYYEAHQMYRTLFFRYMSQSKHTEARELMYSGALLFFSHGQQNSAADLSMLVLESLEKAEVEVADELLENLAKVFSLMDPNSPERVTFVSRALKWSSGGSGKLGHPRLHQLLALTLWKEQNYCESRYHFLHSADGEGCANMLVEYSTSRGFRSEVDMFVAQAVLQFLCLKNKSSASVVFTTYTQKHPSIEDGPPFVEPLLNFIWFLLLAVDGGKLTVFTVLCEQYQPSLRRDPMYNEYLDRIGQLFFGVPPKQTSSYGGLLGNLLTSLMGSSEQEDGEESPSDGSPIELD
UniProt P0DMV8: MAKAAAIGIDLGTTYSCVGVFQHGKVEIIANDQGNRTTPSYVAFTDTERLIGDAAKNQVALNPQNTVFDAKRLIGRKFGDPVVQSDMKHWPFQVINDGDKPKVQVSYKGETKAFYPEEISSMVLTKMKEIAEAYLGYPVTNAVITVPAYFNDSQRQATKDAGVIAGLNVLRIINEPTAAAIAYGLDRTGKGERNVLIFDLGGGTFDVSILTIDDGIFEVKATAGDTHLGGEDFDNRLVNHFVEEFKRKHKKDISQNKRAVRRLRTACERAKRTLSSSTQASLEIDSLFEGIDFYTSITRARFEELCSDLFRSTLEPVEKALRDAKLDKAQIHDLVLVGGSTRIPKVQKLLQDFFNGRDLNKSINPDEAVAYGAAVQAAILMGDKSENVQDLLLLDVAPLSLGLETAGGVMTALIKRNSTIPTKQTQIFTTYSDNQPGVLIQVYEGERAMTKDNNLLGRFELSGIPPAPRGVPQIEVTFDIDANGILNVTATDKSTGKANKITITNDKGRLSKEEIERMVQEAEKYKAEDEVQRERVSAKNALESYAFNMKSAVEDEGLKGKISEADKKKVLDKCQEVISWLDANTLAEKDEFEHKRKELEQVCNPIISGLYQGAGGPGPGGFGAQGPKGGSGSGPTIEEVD
UniProt P11142: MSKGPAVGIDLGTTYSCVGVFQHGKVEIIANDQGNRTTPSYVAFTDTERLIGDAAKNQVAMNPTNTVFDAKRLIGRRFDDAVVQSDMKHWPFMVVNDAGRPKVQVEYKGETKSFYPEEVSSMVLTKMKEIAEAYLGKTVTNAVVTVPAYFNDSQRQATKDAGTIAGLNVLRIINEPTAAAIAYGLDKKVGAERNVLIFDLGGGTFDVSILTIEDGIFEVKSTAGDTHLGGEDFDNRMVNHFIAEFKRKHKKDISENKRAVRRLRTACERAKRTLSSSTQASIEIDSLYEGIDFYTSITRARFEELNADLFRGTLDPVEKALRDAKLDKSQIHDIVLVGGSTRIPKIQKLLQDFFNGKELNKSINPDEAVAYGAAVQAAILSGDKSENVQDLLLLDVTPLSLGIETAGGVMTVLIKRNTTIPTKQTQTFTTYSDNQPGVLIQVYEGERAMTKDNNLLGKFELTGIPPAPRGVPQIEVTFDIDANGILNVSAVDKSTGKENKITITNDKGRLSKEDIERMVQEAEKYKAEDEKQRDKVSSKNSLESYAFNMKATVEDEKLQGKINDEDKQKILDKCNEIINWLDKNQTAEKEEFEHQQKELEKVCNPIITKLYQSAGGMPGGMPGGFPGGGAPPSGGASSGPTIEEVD
UniProt P38646, residues 47-679: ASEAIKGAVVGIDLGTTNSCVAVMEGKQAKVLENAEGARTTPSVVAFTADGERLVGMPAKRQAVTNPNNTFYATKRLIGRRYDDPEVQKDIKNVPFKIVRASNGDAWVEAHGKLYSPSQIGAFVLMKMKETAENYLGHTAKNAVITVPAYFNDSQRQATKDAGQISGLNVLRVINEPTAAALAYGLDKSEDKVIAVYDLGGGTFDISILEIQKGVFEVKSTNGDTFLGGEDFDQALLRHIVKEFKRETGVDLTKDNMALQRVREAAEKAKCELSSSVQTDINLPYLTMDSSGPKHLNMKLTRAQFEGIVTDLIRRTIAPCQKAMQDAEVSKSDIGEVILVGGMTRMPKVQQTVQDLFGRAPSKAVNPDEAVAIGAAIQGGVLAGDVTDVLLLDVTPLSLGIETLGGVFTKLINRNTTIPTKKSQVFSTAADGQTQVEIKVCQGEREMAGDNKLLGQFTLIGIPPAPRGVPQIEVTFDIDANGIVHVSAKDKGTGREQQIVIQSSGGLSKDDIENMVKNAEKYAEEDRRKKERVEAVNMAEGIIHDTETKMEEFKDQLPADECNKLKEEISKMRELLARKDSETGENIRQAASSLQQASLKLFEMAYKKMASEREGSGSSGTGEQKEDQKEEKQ

How the values were obtained:
[1] = target: GET4 (human (endogenous in HeLa)) (UniProt Q7L5D6); test: affinity purification with mass spectrometry; anti-GET4 or anti-BAG6 antibody on Dynabeads (4 mg beads per IP) with ER-Mito reporter cell lysate; DIA mass spectrometry, control IP against GET4 or BAG6 IP, pairwise t tests with 5% FDR, N = 4
[2] = target: BAG6 (human (endogenous in HeLa)) (UniProt P46379); test: as above

Molecule: HSPA1A (from UniProt P0DMV8 1-641)
binding [1]: binds

Molecule: HSPA8 (from UniProt P11142 1-646)
binding [2]: binds
binding [1]: binds

The next lines start with the values.

binding [2]: binds
Molecule: glucose-regulated protein 75 (GRP75) (from UniProt P38646 47-679)

binding [1]: binds
B1: UBL-containing protein 4 A (UBL4A) (protein, UniProt P11441 1-157)
chain: MQLTVKALQGRECSLQVPEDELVSTLKQLVSEKLNVPVRQQRLLFKGKALADGKRLSDYSIGPNSKLNLVVKPLEKVLLEEGEAQRLADSPPPQVWQLISKVLARHFSAADASRVLEQLQRDYERSLSRLTLDDIERLASRFLHPEVTETMEKGFSK
